Holding throughout (assay): co-IP; reciprocal immunoprecipitation of TAP-tagged bait followed by Western blotting; yeast in synchronous meiosis arrested at prophase I by ndt80Δ
Assay [1] deals with T1, TAP-Mps2 (budding yeast (SK1 background)) (UniProt P53159).
T1 sequence: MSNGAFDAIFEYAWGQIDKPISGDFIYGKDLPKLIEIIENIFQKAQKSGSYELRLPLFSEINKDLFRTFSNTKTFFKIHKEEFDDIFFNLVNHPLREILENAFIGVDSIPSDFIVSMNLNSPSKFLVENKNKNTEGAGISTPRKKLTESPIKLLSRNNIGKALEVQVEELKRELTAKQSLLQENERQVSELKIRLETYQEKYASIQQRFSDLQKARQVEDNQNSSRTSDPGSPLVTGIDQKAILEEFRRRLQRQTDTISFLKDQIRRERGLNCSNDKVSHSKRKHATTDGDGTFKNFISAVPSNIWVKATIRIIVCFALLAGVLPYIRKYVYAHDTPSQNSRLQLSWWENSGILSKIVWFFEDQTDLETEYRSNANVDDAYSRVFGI

Assay [2] has as its target T2, TAP-Csm4 (budding yeast (SK1 background)) (UniProt Q08955).
T2 sequence: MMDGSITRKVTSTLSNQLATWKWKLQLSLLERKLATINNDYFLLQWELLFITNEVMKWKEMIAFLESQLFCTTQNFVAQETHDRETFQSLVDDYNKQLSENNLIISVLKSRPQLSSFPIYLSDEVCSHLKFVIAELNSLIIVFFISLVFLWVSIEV

The target in assay [3] is T3, TAP-Mps3 (budding yeast (SK1 background)) (UniProt P47069).
T3 sequence: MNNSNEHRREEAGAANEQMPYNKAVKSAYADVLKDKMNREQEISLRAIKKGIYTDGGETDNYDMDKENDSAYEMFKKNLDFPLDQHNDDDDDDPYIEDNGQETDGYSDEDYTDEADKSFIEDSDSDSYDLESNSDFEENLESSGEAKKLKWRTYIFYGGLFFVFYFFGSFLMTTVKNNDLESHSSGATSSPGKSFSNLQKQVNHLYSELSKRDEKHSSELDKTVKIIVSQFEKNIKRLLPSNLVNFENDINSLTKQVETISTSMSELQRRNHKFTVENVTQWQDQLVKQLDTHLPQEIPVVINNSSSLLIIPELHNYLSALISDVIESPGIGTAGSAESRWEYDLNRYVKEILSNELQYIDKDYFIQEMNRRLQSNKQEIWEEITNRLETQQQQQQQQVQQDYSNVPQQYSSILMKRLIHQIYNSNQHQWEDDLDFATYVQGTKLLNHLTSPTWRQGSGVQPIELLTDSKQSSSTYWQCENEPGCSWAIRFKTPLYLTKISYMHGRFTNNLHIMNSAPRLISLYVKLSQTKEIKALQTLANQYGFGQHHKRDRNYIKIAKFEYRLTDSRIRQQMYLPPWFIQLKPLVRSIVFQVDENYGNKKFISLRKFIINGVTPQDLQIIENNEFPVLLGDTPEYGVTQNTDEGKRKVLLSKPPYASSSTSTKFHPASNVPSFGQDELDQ

From paper PMC7536833 come the findings set out here.

These are yes or no findings as the source states them, for the method shown. In cells and extracts the contact can be indirect. Some binding calls cover weakened binding; strength is not graded here. For some of these results: Where a sequence is shown, tags or fusion partners need not be part of it.

B1: Mps3-V5 (protein, UniProt P47069 1-682)
chain: T3 sequence
Consider B1, for which the binding entry in assay [1] is “binds”.

B2: Mps2-3HA (protein, UniProt P53159 1-387)
chain: T1 sequence
For the molecule B2, the binding entry in assay [2] is “binds”.

B3: V5-Mps2 (protein, UniProt P53159 1-387)
chain: T1 sequence
As to B3, in assay [3], the binding entry is “binds”.

B4: V5-Csm4 (protein, UniProt Q08955 1-156)
chain: T2 sequence
For B4, the binding result in assay [1] was “binds”.
